Experimental data: PubChem BioAssay AID1224830 (NIAID, 2016)

Screen: 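Host factors that control LPS-induced TNF expression in human macrophages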 (primary screen)
System: human THP-1 monocytic leukaemia cells, TNF dual-luciferase reporter clone, PMA-differentiated to macrophage-like cells
Reagent: siRNA pool against human genes, 50 nM
Time to read-out: LPS for 4 h, given about 3 days after siRNA transfection
Challenge: bacterial LPS (TLR4 ligand), 10 ng/ml
Read-out: 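TNF firefly reporter luminescence divided by renilla, normalised to the plate median, then turned into a robust z-score for each replicate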
Direction: TNF reporter robust z-score: higher = stronger TNF reporter response to LPS
Call rule: 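Each well counts as active if its z-score is over 2.8 or under -1.5; controls are left without a call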
The whole screen tested about 18,000 reagents; this is an unselected part. Of all reagents, about 2,900 (16%) were called active. 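Calls are made per well; low scores hint the gene aids the LPS response, high scores that it dampens it.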 A number with no mark means an inactive call. Repeated entries: four replicate wells of each siRNA pool. No sequences are given here.

no.	Gene	PubChem SID	TNF reporter robust z-score
1	TEKT3	SID315458938	0.47
2	TEKT3	SID315458938	0.32
3	TEKT3	SID315458938	-0.28
4	TEKT3	SID315458938	0.51
5	PPP1CC	SID315450740	-0.2
6	PPP1CC	SID315450740	-0.66
7	PPP1CC	SID315450740	-0.02
8	PPP1CC	SID315450740	0.68
9	PIGR	SID315450583	-0.88
10	PIGR	SID315450583	-0.55
11	PIGR	SID315450583	-0.47
12	PIGR	SID315450583	-0.62
13	P2RY8	SID315463922	-0.43
14	P2RY8	SID315463922	-0.31
15	P2RY8	SID315463922	-0.7
16	P2RY8	SID315463922	0.06
17	ZBTB7B	SID315456423	-0.02
18	ZBTB7B	SID315456423	-0.07
19	ZBTB7B	SID315456423	0.86
20	ZBTB7B	SID315456423	0.59

In a second layout: entries from further up
TEKT3 [SID315458938] | TNF reporter robust z-score = 0.51
PPP1CC [SID315450740] | TNF reporter robust z-score = -0.2
PPP1CC [SID315450740] | TNF reporter robust z-score = -0.66
PPP1CC [SID315450740] | TNF reporter robust z-score = -0.02
PPP1CC [SID315450740] | TNF reporter robust z-score = 0.68
PIGR [SID315450583] | TNF reporter robust z-score = -0.88

Additional results follow:
no.	Gene	PubChem SID	TNF reporter robust z-score
21	OR3A3	SID315452531	-1.62 (active)
22	OR3A3	SID315452531	-0.39
23	OR3A3	SID315452531	-1.72 (active)
24	OR3A3	SID315452531	0.33
25	C2orf69	SID315463142	0.78
26	C2orf69	SID315463142	0.94
27	C2orf69	SID315463142	0.07
28	C2orf69	SID315463142	0.43
29	CFAP298	SID315458113	0.77
30	CFAP298	SID315458113	-0.27
31	CFAP298	SID315458113	-0.38
32	CFAP298	SID315458113	0.03
33	TMEM95	SID315464015	0.16
34	TMEM95	SID315464015	2.71
35	TMEM95	SID315464015	0.71
36	TMEM95	SID315464015	1.06
37	ESRRG	SID315448569	-0.62
38	ESRRG	SID315448569	2.39
39	ESRRG	SID315448569	-0.22
40	ESRRG	SID315448569	2.24
41	HYDIN	SID315457152	0.38
42	HYDIN	SID315457152	0.99
43	HYDIN	SID315457152	0.32
44	HYDIN	SID315457152	0.18
45	LCORL	SID315463450	1.13
46	LCORL	SID315463450	0.1
47	LCORL	SID315463450	1.31
48	LCORL	SID315463450	-0.02
